Assay [1] deals with Prelamin-A/C, MAC-tagged (human) (UniProt P02545). In words: proximity labelling.
Assay [2] shares this target. Briefly: affinity purification with mass spectrometry.

Sequences of proteins named here, by UniProt entry; tags and fusion partners are left off. Residues count along the entry.
UniProt P02545, residues 1-646: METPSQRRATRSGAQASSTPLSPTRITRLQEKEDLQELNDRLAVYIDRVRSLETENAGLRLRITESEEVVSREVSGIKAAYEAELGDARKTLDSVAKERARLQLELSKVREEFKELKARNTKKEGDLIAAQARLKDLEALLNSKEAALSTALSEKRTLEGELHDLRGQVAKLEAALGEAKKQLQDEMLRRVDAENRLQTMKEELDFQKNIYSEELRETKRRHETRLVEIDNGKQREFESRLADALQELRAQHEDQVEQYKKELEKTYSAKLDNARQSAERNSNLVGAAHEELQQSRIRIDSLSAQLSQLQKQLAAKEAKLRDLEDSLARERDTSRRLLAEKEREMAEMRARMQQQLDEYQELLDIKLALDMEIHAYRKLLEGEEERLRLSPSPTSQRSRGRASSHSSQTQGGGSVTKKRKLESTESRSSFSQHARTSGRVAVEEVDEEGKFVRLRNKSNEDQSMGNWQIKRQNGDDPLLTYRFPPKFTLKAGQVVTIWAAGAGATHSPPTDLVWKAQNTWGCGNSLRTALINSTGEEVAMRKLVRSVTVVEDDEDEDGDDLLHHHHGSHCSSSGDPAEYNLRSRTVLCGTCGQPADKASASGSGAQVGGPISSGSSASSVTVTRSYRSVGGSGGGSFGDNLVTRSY
UniProt P12270: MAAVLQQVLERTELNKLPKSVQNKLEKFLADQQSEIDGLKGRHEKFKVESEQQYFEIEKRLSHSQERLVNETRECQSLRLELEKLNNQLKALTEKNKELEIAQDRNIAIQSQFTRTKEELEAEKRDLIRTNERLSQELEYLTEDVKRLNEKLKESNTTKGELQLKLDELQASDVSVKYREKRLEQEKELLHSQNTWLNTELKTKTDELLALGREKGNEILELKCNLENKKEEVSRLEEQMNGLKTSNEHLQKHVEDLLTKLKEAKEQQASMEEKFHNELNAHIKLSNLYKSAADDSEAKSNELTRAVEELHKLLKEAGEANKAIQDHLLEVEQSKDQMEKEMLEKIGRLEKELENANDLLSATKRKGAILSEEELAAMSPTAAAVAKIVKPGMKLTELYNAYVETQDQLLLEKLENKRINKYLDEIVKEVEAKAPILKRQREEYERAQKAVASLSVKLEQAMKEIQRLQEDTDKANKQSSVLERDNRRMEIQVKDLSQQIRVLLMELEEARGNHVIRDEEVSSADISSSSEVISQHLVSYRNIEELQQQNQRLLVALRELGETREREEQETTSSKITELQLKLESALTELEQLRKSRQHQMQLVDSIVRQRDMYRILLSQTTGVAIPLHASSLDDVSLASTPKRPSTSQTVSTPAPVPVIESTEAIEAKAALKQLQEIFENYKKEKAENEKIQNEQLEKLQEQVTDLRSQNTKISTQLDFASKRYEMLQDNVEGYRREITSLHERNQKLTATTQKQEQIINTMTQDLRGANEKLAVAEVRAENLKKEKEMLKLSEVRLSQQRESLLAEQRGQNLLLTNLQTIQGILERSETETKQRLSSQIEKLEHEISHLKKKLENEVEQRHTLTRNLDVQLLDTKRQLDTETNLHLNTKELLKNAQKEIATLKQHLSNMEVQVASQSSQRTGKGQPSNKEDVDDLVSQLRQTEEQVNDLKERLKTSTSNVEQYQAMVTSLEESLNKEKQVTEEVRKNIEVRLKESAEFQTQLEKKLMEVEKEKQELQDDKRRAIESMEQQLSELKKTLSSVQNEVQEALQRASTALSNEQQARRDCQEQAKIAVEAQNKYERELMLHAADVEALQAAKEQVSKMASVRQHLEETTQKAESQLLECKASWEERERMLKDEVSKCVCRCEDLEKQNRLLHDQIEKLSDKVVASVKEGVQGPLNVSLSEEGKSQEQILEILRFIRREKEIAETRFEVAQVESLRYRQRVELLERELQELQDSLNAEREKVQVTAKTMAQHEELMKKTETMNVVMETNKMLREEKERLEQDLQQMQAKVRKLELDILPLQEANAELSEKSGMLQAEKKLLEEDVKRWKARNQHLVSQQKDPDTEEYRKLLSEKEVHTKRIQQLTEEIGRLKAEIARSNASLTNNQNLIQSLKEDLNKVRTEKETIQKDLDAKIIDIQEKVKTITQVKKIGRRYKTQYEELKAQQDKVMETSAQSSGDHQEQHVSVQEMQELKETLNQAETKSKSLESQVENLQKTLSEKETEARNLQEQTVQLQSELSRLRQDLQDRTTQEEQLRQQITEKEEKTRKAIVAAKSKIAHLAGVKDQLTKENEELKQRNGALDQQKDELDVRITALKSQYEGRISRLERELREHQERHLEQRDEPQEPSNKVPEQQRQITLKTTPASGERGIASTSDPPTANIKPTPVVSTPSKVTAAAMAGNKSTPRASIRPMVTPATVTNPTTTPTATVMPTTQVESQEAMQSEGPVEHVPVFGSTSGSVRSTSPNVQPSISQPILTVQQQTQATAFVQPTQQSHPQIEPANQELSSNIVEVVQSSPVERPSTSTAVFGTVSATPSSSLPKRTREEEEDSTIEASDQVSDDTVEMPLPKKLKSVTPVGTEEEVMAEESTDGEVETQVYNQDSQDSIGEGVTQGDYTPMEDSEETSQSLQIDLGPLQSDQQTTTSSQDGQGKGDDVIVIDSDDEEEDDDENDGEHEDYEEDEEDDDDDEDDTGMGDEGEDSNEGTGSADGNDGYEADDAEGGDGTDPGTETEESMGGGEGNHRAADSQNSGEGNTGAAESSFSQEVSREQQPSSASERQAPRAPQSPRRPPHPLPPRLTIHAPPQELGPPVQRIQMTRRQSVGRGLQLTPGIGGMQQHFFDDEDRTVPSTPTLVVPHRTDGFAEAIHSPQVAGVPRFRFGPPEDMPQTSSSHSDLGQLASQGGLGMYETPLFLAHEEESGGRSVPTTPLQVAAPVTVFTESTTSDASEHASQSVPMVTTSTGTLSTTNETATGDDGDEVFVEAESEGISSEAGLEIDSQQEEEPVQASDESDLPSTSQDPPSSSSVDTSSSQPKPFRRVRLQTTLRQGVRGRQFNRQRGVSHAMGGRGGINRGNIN
UniProt Q14739: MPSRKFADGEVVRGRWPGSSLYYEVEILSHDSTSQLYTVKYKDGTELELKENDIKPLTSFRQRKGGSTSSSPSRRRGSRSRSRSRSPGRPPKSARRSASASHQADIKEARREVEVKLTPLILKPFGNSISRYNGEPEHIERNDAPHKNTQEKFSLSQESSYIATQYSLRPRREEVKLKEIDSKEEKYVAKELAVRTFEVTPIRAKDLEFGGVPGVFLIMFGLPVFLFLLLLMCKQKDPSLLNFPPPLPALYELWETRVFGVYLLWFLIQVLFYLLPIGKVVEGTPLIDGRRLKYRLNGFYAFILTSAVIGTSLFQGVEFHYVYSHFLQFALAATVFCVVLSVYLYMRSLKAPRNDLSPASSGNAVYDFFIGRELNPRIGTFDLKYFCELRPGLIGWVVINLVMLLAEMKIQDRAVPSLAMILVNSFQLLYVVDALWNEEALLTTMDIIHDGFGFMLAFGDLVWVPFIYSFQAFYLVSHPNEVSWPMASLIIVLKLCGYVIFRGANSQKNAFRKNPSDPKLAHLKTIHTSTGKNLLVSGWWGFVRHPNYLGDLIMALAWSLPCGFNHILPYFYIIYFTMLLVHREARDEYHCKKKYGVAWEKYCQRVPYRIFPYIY
UniProt P52294: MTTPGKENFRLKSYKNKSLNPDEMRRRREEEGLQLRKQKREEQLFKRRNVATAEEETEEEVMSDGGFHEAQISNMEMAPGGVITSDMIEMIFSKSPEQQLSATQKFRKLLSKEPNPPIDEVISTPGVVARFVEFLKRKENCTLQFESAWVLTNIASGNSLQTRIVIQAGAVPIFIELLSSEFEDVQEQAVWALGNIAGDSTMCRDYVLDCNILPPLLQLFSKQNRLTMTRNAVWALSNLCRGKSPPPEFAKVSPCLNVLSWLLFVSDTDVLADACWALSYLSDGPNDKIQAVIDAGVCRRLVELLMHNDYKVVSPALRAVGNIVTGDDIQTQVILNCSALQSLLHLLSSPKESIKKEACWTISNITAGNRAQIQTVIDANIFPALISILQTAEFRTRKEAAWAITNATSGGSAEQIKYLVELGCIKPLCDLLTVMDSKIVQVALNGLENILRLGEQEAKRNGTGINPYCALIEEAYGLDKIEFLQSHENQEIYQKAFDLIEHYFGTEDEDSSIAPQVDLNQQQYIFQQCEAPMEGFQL

No constants are given. Whether binding was seen depends on the method and setting. In cells and extracts the contact can be indirect. A yes stands for co-enrichment or nearness to the bait. Other partners may have been found.

Regarding “importin subunit alpha IMA7 (from UniProt O60684 1-536)”, the binding result in assay [1] and in assay [2] was “binds” in each case.

Turning to “nucleoprotein TPR (from UniProt P12270 1-2363)”, the binding entry in assay [1] and in assay [2] was “binds” in each case.

With “lamin-B receptor (from UniProt Q14739 1-615)”, the binding result in assay [1] and in assay [2] was “binds” each time.

Take “importin subunit alpha IMA5 (from UniProt P52294 1-538)”: the binding result in assay [1] and in assay [2] was “binds” each time.

B1: lamina-associated polypeptide 2A (protein, UniProt P42166)
chain: MPEFLEDPSVLTKDKLKSELVANNVTLPAGEQRKDVYVQLYLQHLTARNRPPLPAGTNSKGPPDFSSDEEREPTPVLGSGAAAAGRSRAAVGRKATKKTDKPRQEDKDDLDVTELTNEDLLDQLVKYGVNPGPIVGTTRKLYEKKLLKLREQGTESRSSTPLPTISSSAENTRQNGSNDSDRYSDNEEGKKKEHKKVKSTRDIVPFSELGTTPSGGGFFQGISFPEISTRPPLGSTELQAAKKVHTSKGDLPREPLVATNLPGRGQLQKLASERNLFISCKSSHDRCLEKSSSSSSQPEHSAMLVSTAASPSLIKETTTGYYKDIVENICGREKSGIQPLCPERSHISDQSPLSSKRKALEESESSQLISPPLAQAIRDYVNSLLVQGGVGSLPGTSNSMPPLDVENIQKRIDQSKFQETEFLSPPRKVPRLSEKSVEERDSGSFVAFQNIPGSELMSSFAKTVVSHSLTTLGLEVAKQSQHDKIDASELSFPFHESILKVIEEEWQQVDRQLPSLACKYPVSSREATQILSVPKVDDEILGFISEATPLGGIQAASTESCNQQLDLALCRAYEAAASALQIATHTAFVAKAMQADISQAAQILSSDPSRTHQALGILSKTYDAASYICEAAFDEVKMAAHTMGNATVGRRYLWLKDCKINLASKNKLASTPFKGGTLFGGEVCKVIKKRGNKH
As for B1, the binding entry in assay [1] and in assay [2] was “binds” each time.

B2: NUP85 (protein, UniProt Q9BW27 1-656)
chain: MEELDGEPTVTLIPGVNSKKNQMYFDWGPGEMLVCETSFNKKEKSEMVPSCPFIYIIRKDVDVYSQILRKLFNESHGIFLGLQRIDEELTGKSRKSQLVRVSKNYRSVIRACMEEMHQVAIAAKDPANGRQFSSQVSILSAMELIWNLCEILFIEVAPAGPLLLHLLDWVRLHVCEVDSLSADVLGSENPSKHDSFWNLVTILVLQGRLDEARQMLSKEADASPASAGICRIMGDLMRTMPILSPGNTQTLTELELKWQHWHEECERYLQDSTFATSPHLESLLKIMLGDEAALLEQKELLSNWYHFLVTRLLYSNPTVKPIDLHYYAQSSLDLFLGGESSPEPLDNILLAAFEFDIHQVIKECSIALSNWWFVAHLTDLLDHCKLLQSHNLYFGSNMREFLLLEYASGLFAHPSLWQLGVDYFDYCPELGRVSLELHIERIPLNTEQKALKVLRICEQRQMTEQVRSICKILAMKAVRNNRLGSALSWSIRAKDAAFATLVSDRFLRDYCERGCFSDLDLIDNLGPAMMLSDRLTFLGKYREFHRMYGEKRFADAASLLLSLMTSRIAPRSFWMTLLTDALPLLEQKQVIFSAEQTYELMRCLEDLTSRRPVHGESDTEQLQDDDIETTKVEMLRLSLARNLARAIIREGSLEGS
Turning to B2, the binding entry in assay [1] is “binds”.

B3: NUP43 (protein, UniProt Q8NFH3 1-380)
chain: MEEIYAKFVSQKISKTRWRPLPPGSLQTAETFATGSWDNEENYISLWSIGDFGNLDSDGGFEGDHQLLCDIRHHGDVMDLQFFDQERIVAASSTGCVTVFLHHPNNQTLSVNQQWTTAHYHTGPGSPSYSSAPCTGVVCNNPEIVTVGEDGRINLFRADHKEAVRTIDNADSSTLHAVTFLRTPEILTVNSIGQLKIWDFRQQGNEPSQILSLTGDRVPLHCVDRHPNQQHVVATGGQDGMLSIWDVRQGTMPVSLLKAHEAEMWEVHFHPSNPEHLFTCSEDGSLWHWDASTDVPEKSSLFHQGGRSSTFLSHSISNQANVHQSVISSWLSTDPAKDRIEITSLLPSRSLSVNTLDVLGPCLVCGTDAEAIYVTRHLFS
With B3, the binding entry in assay [1] was “binds”.

B4: lamin-B2 (protein, UniProt Q03252 1-620)
chain: MSPPSPGRRREQRRPRAAATMATPLPGRAGGPATPLSPTRLSRLQEKEELRELNDRLAHYIDRVRALELENDRLLLKISEKEEVTTREVSGIKALYESELADARRVLDETARERARLQIEIGKLRAELDEVNKSAKKREGELTVAQGRVKDLESLFHRSEVELAAALSDKRGLESDVAELRAQLAKAEDGHAVAKKQLEKETLMRVDLENRCQSLQEELDFRKSVFEEEVRETRRRHERRLVEVDSSRQQEYDFKMAQALEELRSQHDEQVRLYKLELEQTYQAKLDSAKLSSDQNDKAASAAREELKEARMRLESLSYQLSGLQKQASAAEDRIRELEEAMAGERDKFRKMLDAKEQEMTEMRDVMQQQLAEYQELLDVKLALDMEINAYRKLLEGEEERLKLSPSPSSRVTVSRATSSSSGSLSATGRLGRSKRKRLEVEEPLGSGPSVLGTGTGGSGGFHLAQQASASGSVSIEEIDLEGKFVQLKNNSDKDQSLGNWRIKRQVLEGEEIAYKFTPKYILRAGQMVTVWAAGAGVAHSPPSTLVWKGQSSWGTGESFRTVLVNADGEEVAMRTVKKSSVMRENENGEEEEEEAEFGEEDLFHQQGDPRTTSRGCYVM
On to B4, for which the binding result in assay [1] and in assay [2] was “binds” throughout.

B5: inner nuclear membrane protein Man1 (protein, UniProt Q9Y2U8 1-911)
chain: MAAAAASAPQQLSDEELFSQLRRYGLSPGPVTESTRPVYLKKLKKLREEEQQQHRSGGRGNKTRNSNNNNTAAATVAAAGPAAAAAAGMGVRPVSGDLSYLRTPGGLCRISASGPESLLGGPGGASAAPAAGSKVLLGFSSDESDVEASPRDQAGGGGRKDRASLQYRGLKAPPAPLAASEVTNSNSAERRKPHSWWGARRPAGPELQTPPGKDGAVEDEEGEGEDGEERDPETEEPLWASRTVNGSRLVPYSCRENYSDSEEEDDDDVASSRQVLKDDSLSRHRPRRTHSKPLPPLTAKSAGGRLETSVQGGGGLAMNDRAAAAGSLDRSRNLEEAAAAEQGGGCDQVDSSPVPRYRVNAKKLTPLLPPPLTDMDSTLDSSTGSLLKTNNHIGGGAFSVDSPRIYSNSLPPSAAVAASSSLRINHANHTGSNHTYLKNTYNKPKLSEPEEELLQQFKREEVSPTGSFSAHYLSMFLLTAACLFFLILGLTYLGMRGTGVSEDGELSIENPFGETFGKIQESEKTLMMNTLYKLHDRLAQLAGDHECGSSSQRTLSVQEAAAYLKDLGPEYEGIFNTSLQWILENGKDVGIRCVGFGPEEELTNITDVQFLQSTRPLMSFWCRFRRAFVTVTHRLLLLCLGVVMVCVVLRYMKYRWTKEEEETRQMYDMVVKIIDVLRSHNEACQENKDLQPYMPIPHVRDSLIQPHDRKKMKKVWDRAVDFLAANESRVRTETRRIGGADFLVWRWIQPSASCDKILVIPSKVWQGQAFHLDRRNSPPNSLTPCLKIRNMFDPVMEIGDQWHLAIQEAILEKCSDNDGIVHIAVDKNSREGCVYVKCLSPEYAGKAFKALHGSWFDGKLVTVKYLRLDRYHHRFPQALTSNTPLKPSNKHMNSMSHLRLRTGLTNSQGSS
In the case of B5, the binding result in assay [1] and in assay [2] was “binds” throughout.

B6: lamina-associated polypeptide 2B (protein, UniProt P42167)
chain: MPEFLEDPSVLTKDKLKSELVANNVTLPAGEQRKDVYVQLYLQHLTARNRPPLPAGTNSKGPPDFSSDEEREPTPVLGSGAAAAGRSRAAVGRKATKKTDKPRQEDKDDLDVTELTNEDLLDQLVKYGVNPGPIVGTTRKLYEKKLLKLREQGTESRSSTPLPTISSSAENTRQNGSNDSDRYSDNEEDSKIELKLEKREPLKGRAKTPVTLKQRRVEHNQSYSQAGITETEWTSGSSKGGPLQALTRESTRGSRRTPRKRVETSEHFRIDGPVISESTPIAETIMASSNESLVVNRVTGNFKHASPILPITEFSDIPRRAPKKPLTRAEVGEKTEERRVERDILKEMFPYEASTPTGISASCRRPIKGAAGRPLELSDFRMEESFSSKYVPKYVPLADVKSEKTKKGRSIPVWIKILLFVVVAVFLFLVYQAMETNQVNPFSNFLHVDPRKSN
Take B6: the binding entry in assay [1] and in assay [2] was “binds” throughout.

B7: NUP37 (protein, UniProt Q8NFH4 1-326)
chain: MKQDASRNAAYTVDCEDYVHVVEFNPFENGDSGNLIAYGGNNYVVIGTCTFQEEEADVEGIQYKTLRTFHHGVRVDGIAWSPETRLDSLPPVIKFCTSAADMKIRLFTSDLQDKNEYKVLEGHTDFINGLVFDPKEGQEIASVSDDHTCRIWNLEGVQTAHFVLHSPGMSVCWHPEETFKLMVAEKNGTIRFYDLLAQQAILSLESEQVPLMSAHWCLKNTFKVGAVAGNDWLIWDITRSSYPQNKRPVHMDRACLFRWSTISENLFATTGYPGKMASQFQIHHLGHPQPILMGSVAVGSGLSWHRTLPLCVIGGDHKLLFWVTEV
Take B7: in assay [1], the binding entry is listed as “binds”.

B8: NUP50 (protein, UniProt Q9UKX7 1-468)
chain: MAKRNAEKELTDRNWDQEDEAEEVGTFSMASEEVLKNRAIKKAKRRNVGFESDTGGAFKGFKGLVVPSGGGRFSGFGSGAGGKPLEGLSNGNNITSAPPFASAKAAADPKVAFGSLAANGPTTLVDKVSNPKTNGDSQQPSSSGLASSKACVGNAYHKQLAALNCSVRDWIVKHVNTNPLCDLTPIFKDYEKYLANIEQQHGNSGRNSESESNKVAAETQSPSLFGSTKLQQESTFLFHGNKTEDTPDKKMEVASEKKTDPSSLGATSASFNFGKKVDSSVLGSLSSVPLTGFSFSPGNSSLFGKDTTQSKPVSSPFPTKPLEGQAEGDSGECKGGDEEENDEPPKVVVTEVKEEDAFYSKKCKLFYKKDNEFKEKGIGTLHLKPTANQKTQLLVRADTNLGNILLNVLIPPNMPCTRTGKNNVLIVCVPNPPIDEKNATMPVTMLIRVKTSEDADELHKILLEKKDA
With B8, the binding entry in assay [1] and in assay [2] was “binds” in each case.

For the origin of these results see publication doi:10.1101/264788.
